Measurements published in paper PMC5842622, “The Entamoeba histolytica TBP and TRF1 transcription factors are GAAC-box binding proteins, which display differential gene expression under different stress stimuli and during the interaction with ma”.

Key:
[1] = molecular target: T1, rEhTBP (TATA-box binding protein) (Entamoeba histolytica) (UniProt P52653); test: competition with a labelled probe; conditions: 200-fold excess vs GAAC-box probe; EMSA: 12 mM Hepes pH 7.9, 60 mM KCl, 1 mM each DTT, EDTA, spermidine and MgCl2, 10% glycerol, poly(dG-dC) 1 ug/ul, 10 min at 4 C; probe 557 pM (TATA); recombinant protein; protein details: His tag; label: 5'-32P
T1 sequence (looked up, limits assumed): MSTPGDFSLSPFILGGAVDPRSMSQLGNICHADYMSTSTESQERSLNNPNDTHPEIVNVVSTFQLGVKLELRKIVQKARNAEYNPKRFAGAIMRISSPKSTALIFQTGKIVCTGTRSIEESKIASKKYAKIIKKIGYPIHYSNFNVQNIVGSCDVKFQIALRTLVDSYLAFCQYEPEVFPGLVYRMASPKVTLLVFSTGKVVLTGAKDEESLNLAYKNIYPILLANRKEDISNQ

[2] = molecular target: T2, rEhTRF1 (TBP-related factor 1) (Entamoeba histolytica) (UniProt A7UFC2); test: competition with a labelled probe; conditions: 200-fold excess vs GAAC-box probe; EMSA: 12 mM Hepes pH 7.9, 60 mM KCl, 1 mM each DTT, EDTA, spermidine and MgCl2, 10% glycerol, poly(dG-dC) 1 ug/ul, 10 min at 4 C; probe 557 pM (TATA); recombinant protein; protein details: His tag; label: 5'-32P
T2 sequence (looked up, limits assumed): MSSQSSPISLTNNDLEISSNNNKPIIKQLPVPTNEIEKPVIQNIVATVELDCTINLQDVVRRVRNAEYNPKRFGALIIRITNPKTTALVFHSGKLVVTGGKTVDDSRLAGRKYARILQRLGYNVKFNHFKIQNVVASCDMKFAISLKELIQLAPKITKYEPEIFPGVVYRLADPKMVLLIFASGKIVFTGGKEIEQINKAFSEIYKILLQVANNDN

“AATTCTCTATTTAAAGAGAATT (double strand) [TATTTAAA (1)]”: binds [1]; binds [2].

The exact form of at least one protein or probe is not confirmed. Tags and fusion partners may be left off the protein sequences shown.
